Experimental data as given in paper PMC11406190.
No constants are given. Whether binding was seen depends on the method and setting. In cells and extracts the contact can be indirect. Some binding calls cover weakened binding; strength is not graded here. Where a sequence is shown, tags or fusion partners need not be part of it.

Biological target: T1, HA-tagged TBK1 (UniProt Q9UHD2)
T1 sequence: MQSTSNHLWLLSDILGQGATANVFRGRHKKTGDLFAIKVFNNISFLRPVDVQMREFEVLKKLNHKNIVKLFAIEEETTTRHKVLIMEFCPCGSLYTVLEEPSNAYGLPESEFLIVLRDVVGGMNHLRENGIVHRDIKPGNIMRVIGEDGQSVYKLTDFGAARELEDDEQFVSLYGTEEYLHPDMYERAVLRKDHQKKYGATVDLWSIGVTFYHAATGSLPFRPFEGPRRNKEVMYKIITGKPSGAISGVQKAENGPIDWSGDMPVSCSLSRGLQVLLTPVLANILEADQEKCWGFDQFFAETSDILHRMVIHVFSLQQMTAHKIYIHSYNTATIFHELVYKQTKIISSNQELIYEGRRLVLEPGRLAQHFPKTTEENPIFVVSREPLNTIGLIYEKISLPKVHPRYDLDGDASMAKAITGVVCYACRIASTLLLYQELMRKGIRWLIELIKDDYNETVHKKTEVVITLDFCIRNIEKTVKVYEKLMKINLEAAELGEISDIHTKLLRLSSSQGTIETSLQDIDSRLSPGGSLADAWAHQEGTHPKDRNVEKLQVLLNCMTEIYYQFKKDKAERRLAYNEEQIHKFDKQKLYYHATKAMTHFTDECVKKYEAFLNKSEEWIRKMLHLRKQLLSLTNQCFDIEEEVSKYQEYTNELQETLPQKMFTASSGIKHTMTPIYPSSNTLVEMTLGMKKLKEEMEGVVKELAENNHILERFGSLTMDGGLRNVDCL
Test: co-IP

Flag-tagged ZNF268a (from UniProt Q14587-1 1-947)
binding: binds
